Measurements taken from patent publication US20140348840A1.
No constants are given. Whether binding was seen depends on the method and setting. In cells and extracts the contact can be indirect. Some entries that bind do so weakly or less than the wild type. Tags and fused reporters may be left off the sequences shown. Values belong to the binder of their own block, whether it stands above or below them.

Chains of the proteins cited; added tags and fusions are not shown. Residues count along the entry.
UniProt Q09472, residues 2-2414: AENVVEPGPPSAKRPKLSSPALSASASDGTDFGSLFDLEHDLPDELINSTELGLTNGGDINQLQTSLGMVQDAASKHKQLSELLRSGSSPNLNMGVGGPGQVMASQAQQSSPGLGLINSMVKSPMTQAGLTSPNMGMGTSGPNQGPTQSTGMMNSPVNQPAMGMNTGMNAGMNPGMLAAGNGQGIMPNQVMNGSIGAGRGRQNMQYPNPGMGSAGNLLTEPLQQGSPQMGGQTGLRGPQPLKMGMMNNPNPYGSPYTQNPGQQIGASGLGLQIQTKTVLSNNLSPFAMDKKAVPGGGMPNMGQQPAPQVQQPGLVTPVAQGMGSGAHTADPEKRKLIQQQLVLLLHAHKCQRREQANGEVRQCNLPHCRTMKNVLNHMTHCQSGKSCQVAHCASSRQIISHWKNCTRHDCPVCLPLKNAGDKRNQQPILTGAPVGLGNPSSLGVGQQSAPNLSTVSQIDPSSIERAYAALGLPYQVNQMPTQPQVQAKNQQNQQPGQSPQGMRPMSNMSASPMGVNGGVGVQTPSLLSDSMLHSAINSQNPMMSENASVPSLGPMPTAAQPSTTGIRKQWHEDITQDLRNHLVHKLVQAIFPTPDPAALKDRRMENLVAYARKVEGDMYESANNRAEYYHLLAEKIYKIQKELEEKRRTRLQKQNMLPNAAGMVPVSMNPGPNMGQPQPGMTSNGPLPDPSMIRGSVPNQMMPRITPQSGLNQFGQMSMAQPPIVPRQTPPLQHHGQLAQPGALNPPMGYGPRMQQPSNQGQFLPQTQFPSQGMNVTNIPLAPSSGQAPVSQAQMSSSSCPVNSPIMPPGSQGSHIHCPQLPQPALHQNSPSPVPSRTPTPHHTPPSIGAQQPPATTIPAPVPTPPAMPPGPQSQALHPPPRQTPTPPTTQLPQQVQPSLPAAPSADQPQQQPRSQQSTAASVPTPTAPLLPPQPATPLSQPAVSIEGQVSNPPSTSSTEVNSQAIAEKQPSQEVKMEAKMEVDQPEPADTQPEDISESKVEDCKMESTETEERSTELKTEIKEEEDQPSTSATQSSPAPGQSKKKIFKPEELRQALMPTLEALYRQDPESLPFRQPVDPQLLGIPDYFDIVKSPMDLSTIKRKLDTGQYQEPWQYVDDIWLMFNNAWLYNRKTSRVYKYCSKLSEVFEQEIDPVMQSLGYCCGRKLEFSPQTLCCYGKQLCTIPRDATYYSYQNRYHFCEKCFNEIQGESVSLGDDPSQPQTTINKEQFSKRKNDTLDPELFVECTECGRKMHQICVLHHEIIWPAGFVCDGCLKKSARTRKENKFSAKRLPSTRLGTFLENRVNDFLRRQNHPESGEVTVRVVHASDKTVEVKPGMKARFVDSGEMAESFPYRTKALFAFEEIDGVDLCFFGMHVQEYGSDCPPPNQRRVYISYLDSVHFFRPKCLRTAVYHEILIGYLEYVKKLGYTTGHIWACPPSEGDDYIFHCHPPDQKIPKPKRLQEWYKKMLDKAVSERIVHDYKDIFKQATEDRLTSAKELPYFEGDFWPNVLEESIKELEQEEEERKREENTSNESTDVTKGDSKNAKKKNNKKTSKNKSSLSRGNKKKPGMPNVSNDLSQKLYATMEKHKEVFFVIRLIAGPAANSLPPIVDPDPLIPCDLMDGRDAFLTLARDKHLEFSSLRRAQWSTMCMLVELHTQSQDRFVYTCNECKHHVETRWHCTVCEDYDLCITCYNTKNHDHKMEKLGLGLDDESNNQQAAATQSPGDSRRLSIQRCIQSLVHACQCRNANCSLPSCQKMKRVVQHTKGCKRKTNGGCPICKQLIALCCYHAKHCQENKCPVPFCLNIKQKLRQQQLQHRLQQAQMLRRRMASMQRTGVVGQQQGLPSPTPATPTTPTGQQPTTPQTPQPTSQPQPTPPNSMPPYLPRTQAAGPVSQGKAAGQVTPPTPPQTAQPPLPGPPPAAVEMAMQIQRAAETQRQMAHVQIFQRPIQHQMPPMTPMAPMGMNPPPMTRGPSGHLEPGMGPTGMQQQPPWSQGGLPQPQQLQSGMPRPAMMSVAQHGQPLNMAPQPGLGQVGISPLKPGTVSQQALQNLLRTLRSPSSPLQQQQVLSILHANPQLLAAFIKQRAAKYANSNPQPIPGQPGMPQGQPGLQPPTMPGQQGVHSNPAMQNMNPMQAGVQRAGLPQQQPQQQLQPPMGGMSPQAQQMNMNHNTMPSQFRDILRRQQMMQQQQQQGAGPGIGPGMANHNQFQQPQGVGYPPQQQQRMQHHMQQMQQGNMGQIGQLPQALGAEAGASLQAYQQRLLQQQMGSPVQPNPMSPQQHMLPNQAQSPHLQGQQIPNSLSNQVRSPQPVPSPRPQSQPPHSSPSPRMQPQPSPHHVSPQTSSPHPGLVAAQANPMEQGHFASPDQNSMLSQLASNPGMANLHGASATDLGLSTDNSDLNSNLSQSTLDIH

What was measured:
p300 [1] = target: p300 (UniProt Q09472); experiment: anti-Flag co-IP from 293T cells, Western blot for p300
p300 [2] = target: p300 (UniProt Q09472); experiment: anti-Flag co-IP, Western blot for p300

- binding (p300 [1]): binds
- binding (p300 [2]): binds
B1: Flag-ETO (protein, human, UniProt Q06455 1-604, looked up, not shown: small tags and cut ends)
chain: MISVKRNTWRALSLVIGDCRKKGNFEYCQDRTEKHSTMPDSPVDVKTQSRLTPPTMPPPPTTQGAPRTSSFTPTTLTNGTSHSPTALNGAPSPPNGFSNGPSSSSSSSLANQQLPPACGARQLSKLKRFLTTLQQFGNDISPEIGERVRTLVLGLVNSTLTIEEFHSKLQEATNFPLRPFVIPFLKANLPLLQRELLHCARLAKQNPAQYLAQHEQLLLDASTTSPVDSSELLLDVNENGKRRTPDRTKENGFDREPLHSEHPSKRPCTISPGQRYSPNNGLSYQPNGLPHPTPPPPQHYRLDDMAIAHHYRDSYRHPSHRDLRDRNRPMGLHGTRQEEMIDHRLTDREWAEEWKHLDHLLNCIMDMVEKTRRSLTVLRRCQEADREELNYWIRRYSDAEDLKKGGGSSSSHSRQQSPVNPDPVALDAHREFLHRPASGYVPEEIWKKAEEAVNEVKRQAMTELQKAVSEAERKAHDMITTERAKMERTVAEAKRQAAEDALAVINQQEDSSESCWNCGRKASETCSGCNTARYCGSFCQHKDWEKHHHICGQTLQAQQQGDTPAVSSSVTPNSGAGSPMDTPPAATPRSTTPGTPSTIETTPR

- binding (p300 [1]): binds
B2: Flag-ETO-ΔNHR2 (protein, human, UniProt Q06455 1-604, looked up, not shown: small tags and cut ends)
chain: MISVKRNTWRALSLVIGDCRKKGNFEYCQDRTEKHSTMPDSPVDVKTQSRLTPPTMPPPPTTQGAPRTSSFTPTTLTNGTSHSPTALNGAPSPPNGFSNGPSSSSSSSLANQQLPPACGARQLSKLKRFLTTLQQFGNDISPEIGERVRTLVLGLVNSTLTIEEFHSKLQEATNFPLRPFVIPFLKANLPLLQRELLHCARLAKQNPAQYLAQHEQLLLDASTTSPVDSSELLLDVNENGKRRTPDRTKENGFDREPLHSEHPSKRPCTISPGQRYSPNNGLSYQPNGLPHPTPPPPQHYRLDDMAIAHHYRDSYRHPSHRDLRDRNRPMGLEDLKKGGGSSSSHSRQQSPVNPDPVALDAHREFLHRPASGYVPEEIWKKAEEAVNEVKRQAMTELQKAVSEAERKAHDMITTERAKMERTVAEAKRQAAEDALAVINQQEDSSESCWNCGRKASETCSGCNTARYCGSFCQHKDWEKHHHICGQTLQAQQQGDTPAVSSSVTPNSGAGSPMDTPPAATPRSTTPGTPSTIETTPR
